Data published in PubChem BioAssay AID330 (DTP/NCI, 2004).
The list is a part of this screen's results and no random one: it gathers tests that were run many times, whatever their T/C, doses with no T/C, and many T/C values between a quarter and a half above the control. Further doses and runs are listed elsewhere. T/C gives the treated animals as a percentage of the vehicle group. Some entries give survivors of the animals treated and no T/C: the source files T/C as zero there, which appears to mark a toxic dose or a test without result, not a measured value. Some survivor counts are full or nearly so, which does not show that the dose was tolerated: survival well below the control is almost never listed, so the zero probably covers shortened survival too. Counts of survivors are from the toxicity check (mostly the fifth day) where no day follows; animals may have died later. Schedules are NCI's codes, taken here to give the interval after Q, in days (D) or hours (H), and the number of doses after X. Some entries were tested several times; their values stand side by side, smallest first. For survival time, the PubChem record calls one and a half times the control and up active, and a quarter to a half above the control has no call in these data; cut-offs in other NCI protocols can differ. Counts like (3×) stand for listed records that agree. Some T/C values carry the count of animals alive at the toxicity check (mostly the fifth day); without a count, all were alive then.

Test system: P388 leukemia ip, CD2F1 mice, survival T/C
Experiment: NCI In Vivo Anticancer Drug Screen. Data for tumor model P388 Leukemia (intraperitoneal) in CD2F1 (CDF1) mice
Conditions: T/C endpoint: median survival time, higher T/C = longer survival
[1] = dose: 25.0 mg/kg/injection, schedule: Q01DX009 (ip), vehicle: Klucel (hydroxypropylcellulose) (HPC)
[2] = dose: 50.0 mg/kg/injection, schedule: Q01DX009 (ip), vehicle: Klucel (hydroxypropylcellulose) (HPC)
[3] = dose: 100.0 mg/kg/injection, schedule: Q01DX009 (ip), vehicle: Klucel (hydroxypropylcellulose) (HPC)
[4] = dose: 100.0 mg/kg/injection, schedule: Q01DX009 (ip), vehicle: saline
[5] = dose: 50.0 mg/kg/injection, schedule: Q01DX009 (ip), vehicle: saline
[6] = dose: 200.0 mg/kg/injection, schedule: Q01DX009 (ip), vehicle: saline
[7] = dose: 50.0 mg/kg/injection, schedule: Q01DX005 (ip), vehicle: Klucel (hydroxypropylcellulose) (HPC)
[8] = dose: 120.0 mg/kg/injection, schedule: Q01DX005 (ip), vehicle: saline with Tween-80
[9] = dose: 240.0 mg/kg/injection, schedule: Q01DX005 (ip), vehicle: saline with Tween-80
[10] = dose: 100.0 mg/kg/injection, schedule: Q01DX005 (ip), vehicle: Klucel (hydroxypropylcellulose) (HPC)
[11] = dose: 200.0 mg/kg/injection, schedule: Q01DX005 (ip), vehicle: Klucel (hydroxypropylcellulose) (HPC)
[12] = dose: 200.0 mg/kg/injection, schedule: Q01DX005 (ip), vehicle: saline

SMILES: Cn1c2ccccc2c(=O)c2c(O)cc3c(c21)C=CC(C)(C)O3
- survivor count (dose: 0.38 mg/kg/injection, schedule: Q01DX009 (ip), vehicle: Klucel (hydroxypropylcellulose) (HPC)): 6 of 6
- survivor count [1]: 6 of 6
- survivor count [2]: 6 of 6
- survivor count [3]: 6 of 6

SMILES: COP(=O)(OC)C(O)C1CCCCC1 (centres undefined)
- survivor count [4]: 5 of 6

SMILES: C/C(=N/NC(N)=O)c1cccc(/C(C)=N/NC(N)=O)n1.[Cl][Cu][Cl]
- survivor count [5]: 0 of 6
- survivor count [4]: 0 of 6
- survivor count [6]: 0 of 6

SMILES: CN(C(=O)OCc1ccccc1)c1ccc(C(=O)NC(CCC(=O)OCc2ccccc2)C(=O)OCc2ccccc2)cc1 (centres undefined)
- survivor count (dose: 50.0 mg/kg/injection, schedule: Q01DX009 (ip), vehicle: saline with Tween-80): 6 of 6
- survivor count (dose: 100.0 mg/kg/injection, schedule: Q01DX009 (ip), vehicle: saline with Tween-80): 6 of 6

SMILES: Cc1[nH]c(C)c2ccc(=O)ccc12
- survivor count (dose: 120.0 mg/kg/injection, schedule: Q01DX005 (ip), vehicle: suspension in saline): 6 of 6

SMILES: CC(=O)CC(=O)C1C(S[As](C)C)CC2C3CCC4=CC(=O)C=CC4(C)C3C(=O)CC21C (centres undefined)
- survivor count [7]: 6 of 6

SMILES: C=CC(=NC(C)(C)C)Nc1ccc(OC)cc1
- survivor count (dose: 200.0 mg/kg/injection, schedule: Q01DX009 (ip), vehicle: saline with Tween-80): 0 of 6

SMILES: CC(C)(C)c1cc2c3c(c1)C(C)(C)OS3(C)OC2(C)C
- survivor count (dose: 50.0 mg/kg/injection, schedule: Q04DX003 (ip), vehicle: saline with Tween-80): 1 of 6
- survivor count (dose: 100.0 mg/kg/injection, schedule: Q04DX003 (ip), vehicle: saline with Tween-80): 0 of 6
- survivor count (dose: 200.0 mg/kg/injection, schedule: Q04DX003 (ip), vehicle: saline with Tween-80): 0 of 6

SMILES: Nc1[nH]c(=O)ncc1-c1cccc(Cl)c1
- survivor count [8]: 2 of 6
- survivor count [9]: 1 of 6

SMILES: [CH3][Sn]([CH3])([n]1cnc(N)nc1=O)[n]1cnc(N)nc1=O
- T/C [7]: 127 % of control [5 of 6 alive]
- survivor count [10]: 1 of 6
- survivor count [11]: 0 of 6

SMILES: Cc1c(C)n(-c2ccccc2)c2nc(C)n(-c3ccccc3Cl)c(=N)c12
- survivor count [11]: 0 of 6

SMILES: C=C1C(=O)OC2/C=C(\C)CC/C=C(/C(=O)OC)C(OC(=O)C(C)C(C)O)C(OC(=O)C(C)(O)C(C)O)C12 (centres undefined)
- T/C (dose: 3.0 mg/kg/injection, schedule: Q01DX009 (ip), vehicle: Klucel (hydroxypropylcellulose) (HPC)): 134 % of control
- T/C (dose: 4.0 mg/kg/injection, schedule: Q01DX009 (ip), vehicle: Klucel (hydroxypropylcellulose) (HPC)): 125 % of control
- survivor count (dose: 16.0 mg/kg/injection, schedule: Q01DX009 (ip), vehicle: Klucel (hydroxypropylcellulose) (HPC)): 3 of 6
- survivor count (dose: 24.0 mg/kg/injection, schedule: Q01DX009 (ip), vehicle: Klucel (hydroxypropylcellulose) (HPC)): 4 of 6
- survivor count (dose: 32.0 mg/kg/injection, schedule: Q01DX009 (ip), vehicle: Klucel (hydroxypropylcellulose) (HPC)): 0 of 6

SMILES: O=C(O)c1[nH]c(=O)[nH]c(=O)c1F
- T/C (dose: 2.0 mg/kg/injection, schedule: Q01DX009 (ip), vehicle: saline): 127 % of control
- T/C (dose: 4.0 mg/kg/injection, schedule: Q01DX009 (ip), vehicle: saline): 145 % of control
- T/C (dose: 8.0 mg/kg/injection, schedule: Q01DX009 (ip), vehicle: saline): 131 % of control
- T/C (dose: 10.0 mg/kg/injection, schedule: Q01DX010 (ip), vehicle: saline): 135 % of control [5 of 6 alive]
- survivor count (dose: 20.0 mg/kg/injection, schedule: Q01DX010 (ip), vehicle: saline): 5 of 6

SMILES: COc1ccccc1NC(=O)N(CCCl)N=O
- T/C (dose: 1.5 mg/kg/injection, schedule: Q04DX003 (ip), vehicle: saline with Tween-80): 145 % of control
- T/C (dose: 25.0 mg/kg/injection, schedule: Q04DX003 (ip), vehicle: saline with Tween-80): 128 % of control

SMILES: COC(=O)c1c2ccccc2cn1C
- survivor count (dose: 400.0 mg/kg/injection, schedule: Q04DX002 (ip), vehicle: saline with Tween-80): 1 of 6

SMILES: CCN(CC)CCCC(C)Nc1nncc2cc(Cl)ccc12 (centres undefined)
- survivor count [12]: 0 of 6

SMILES: [N-]=[N+]=NC1(c2ccccc2)C(=O)c2ccccc2C1=O
- survivor count (dose: 400.0 mg/kg/injection, schedule: Q04DX003 (ip), vehicle: saline with Tween-80): 3 of 6

SMILES: CCOc1c(N=Nc2cccc([N+](=O)[O-])c2)c(C)nn1C(=S)SC
- survivor count (dose: 240.0 mg/kg/injection, schedule: Q01DX005 (ip), vehicle: Klucel (hydroxypropylcellulose) (HPC)): 3 of 6

SMILES: CN1COc2c(n(C)c(=O)[nH]c2=O)C1
- T/C [12]: 126 % of control (2×)

SMILES: Cc1ccc(N=Nc2c(-c3cccs3)nn(C(N)=S)c2C(F)(F)F)cc1
- survivor count [7]: 2 of 6
- survivor count [10]: 0 of 6
- survivor count [11]: 0 of 6

SMILES: CC(NNC(=S)N1CCN(c2ccccn2)CC1)c1nccc2ccccc12 (centres undefined)
- survivor count (dose: 400.0 mg/kg/injection, schedule: Q04DX002 (ip), vehicle: Klucel (hydroxypropylcellulose) (HPC)): 0 of 6

SMILES: c1ccc(C(Nc2nncs2)Nc2nncs2)cc1
- T/C [8]: 131 % of control

SMILES: Nc1ccc(-c2csc(-c3ccc(Br)cc3)n2)cc1
- survivor count [2]: 6 of 6
- survivor count [3]: 6 of 6
- survivor count (dose: 200.0 mg/kg/injection, schedule: Q01DX009 (ip), vehicle: Klucel (hydroxypropylcellulose) (HPC)): 6 of 6

SMILES: CCc1cccc(CC)c1NC(=O)NN(CC)CC
- survivor count [9]: 6 of 6

SMILES: C=C(C)C(=O)OC1CCC2(C)C(CCC3C2CCC2(C)C(c4ccc(=O)oc4)CCC32O)C1 (centres undefined)
- survivor count [4]: 5 of 6

SMILES: COc1cc2c(cc1OC)C(CN)C2 (centres undefined)
- survivor count [6]: 2 of 6

SMILES: CC1CCC(C)N1CCCCN1C(C)CCC1C (centres undefined)
- survivor count (dose: 25.0 mg/kg/injection, schedule: Q01DX009 (ip), vehicle: saline): 1 of 6
- survivor count [5]: 1 of 6 and 3 of 6
- survivor count [4]: 5 of 6
- survivor count [6]: 0 of 6
- survivor count (dose: 400.0 mg/kg/injection, schedule: Q01DX009 (ip), vehicle: saline): 0 of 6

SMILES: CCCCn1ccnc1C
- survivor count [5]: 3 of 6
- survivor count [4]: 0 of 6
- survivor count [6]: 0 of 6

SMILES: CC(O)C(O)C=O (centres undefined)
- T/C (dose: 346.0 mg/kg/injection, schedule: Q01DX010 (ip), vehicle: saline): 140 % of control
- T/C (dose: 576.0 mg/kg/injection, schedule: Q01DX010 (ip), vehicle: saline): 140 % of control

SMILES: COc1cccc2c1C(=O)C1=C(C2=O)c2c(O)cc(CO)cc2C(O)C1O (centres undefined)
- survivor count (dose: 50.0 mg/kg/injection, schedule: Q01DX005 (ip), vehicle: saline + Tween-80 + alcohol): 3 of 6

SMILES: N#CN=[N+]([O-])c1ccc(Br)cc1
- survivor count (dose: 50.0 mg/kg/injection, schedule: Q04DX003 (ip), vehicle: Klucel (hydroxypropylcellulose) (HPC)): 3 of 6
- survivor count (dose: 100.0 mg/kg/injection, schedule: Q04DX003 (ip), vehicle: Klucel (hydroxypropylcellulose) (HPC)): 2 of 6
- survivor count (dose: 200.0 mg/kg/injection, schedule: Q04DX003 (ip), vehicle: Klucel (hydroxypropylcellulose) (HPC)): 0 of 6

SMILES: CCN1CC2(COC)C(O)CC(OC)C34C5CC6(O)C(OC)C=C(C5C6OC(=O)c5ccc(OC)c(OC)c5)C(C(OC)C23)C14 (centres undefined)
- survivor count (dose: 12.5 mg/kg/injection, schedule: Q01DX009 (ip), vehicle: Klucel (hydroxypropylcellulose) (HPC)): 1 of 6
- survivor count [1]: 0 of 6
- survivor count [2]: 0 of 6

SMILES: Cc1ccc(C2N3CCCN2CC3)cc1 (centres undefined)
- survivor count (dose: 400.0 mg/kg/injection, schedule: Q01DX009 (ip), vehicle: saline with Tween-80): 0 of 6

SMILES: Cc1cc(O)c2c(c1)C(=O)C13C(=C2O)C(=O)C2C(O)C1C1C(O)C3C(=O)C3=C(O)c4c(O)cc(C)cc4C(=O)C321 (centres undefined)
- survivor count (dose: 12.5 mg/kg/injection, schedule: Q01DX005 (ip), vehicle: Klucel (hydroxypropylcellulose) (HPC)): 6 of 6
- survivor count (dose: 25.0 mg/kg/injection, schedule: Q01DX005 (ip), vehicle: Klucel (hydroxypropylcellulose) (HPC)): 2 of 6
- survivor count [7]: 1 of 6 and 5 of 6
- survivor count [10]: 0 of 6
- survivor count [11]: 0 of 6

SMILES: Cc1ccnc(NC(=O)Nc2cc(F)ccc2F)c1
- survivor count [8]: 6 of 6
